Holding throughout (assay): two-hybrid; Bacterio-Match II bacterial two-hybrid in an E. coli reporter strain (derivative of XL1-Blue MRF'); hybrids with lambda cI-NTD (pBT) and RNAP alpha-NTD (pTRG), vector swaps; HIS3 reporter, selective plates with 5 mM 3-AT, 50 uM IPTG, 24 h at 37°C then 48 h at 28°C; CFU ratio selective/nonselective normalised to the RpoS/RssB interaction
One assay addresses T1, PdeR (E. coli K-12) (UniProt P77334).
T1 sequence: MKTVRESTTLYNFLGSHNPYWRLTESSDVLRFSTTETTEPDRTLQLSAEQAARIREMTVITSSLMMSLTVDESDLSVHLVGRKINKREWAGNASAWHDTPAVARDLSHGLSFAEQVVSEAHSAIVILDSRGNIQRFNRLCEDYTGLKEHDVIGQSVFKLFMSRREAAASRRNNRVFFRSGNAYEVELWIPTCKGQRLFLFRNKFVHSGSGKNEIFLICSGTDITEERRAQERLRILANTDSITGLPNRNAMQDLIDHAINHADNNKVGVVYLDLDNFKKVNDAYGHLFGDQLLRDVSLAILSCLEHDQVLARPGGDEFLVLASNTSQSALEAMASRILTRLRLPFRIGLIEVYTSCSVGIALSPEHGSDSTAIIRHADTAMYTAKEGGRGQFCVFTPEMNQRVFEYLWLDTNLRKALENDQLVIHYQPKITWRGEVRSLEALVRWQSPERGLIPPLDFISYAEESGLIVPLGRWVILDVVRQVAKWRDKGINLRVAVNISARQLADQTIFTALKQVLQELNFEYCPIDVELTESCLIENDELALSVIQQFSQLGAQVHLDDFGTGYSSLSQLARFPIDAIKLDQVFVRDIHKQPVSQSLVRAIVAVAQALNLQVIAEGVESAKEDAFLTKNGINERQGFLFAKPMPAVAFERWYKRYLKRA

Assay [1] concerns the target T2, isolated degenerate GGDEF domain of PdeR (E. coli K-12) (UniProt P77334).
T2 sequence: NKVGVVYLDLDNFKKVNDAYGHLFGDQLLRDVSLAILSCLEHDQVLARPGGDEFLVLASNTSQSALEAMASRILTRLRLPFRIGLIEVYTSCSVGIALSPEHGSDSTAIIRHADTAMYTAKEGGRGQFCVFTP

Assay [2] concerns the target T3, isolated EAL domain of PdeR (E. coli K-12) (UniProt P77334).
T3 sequence: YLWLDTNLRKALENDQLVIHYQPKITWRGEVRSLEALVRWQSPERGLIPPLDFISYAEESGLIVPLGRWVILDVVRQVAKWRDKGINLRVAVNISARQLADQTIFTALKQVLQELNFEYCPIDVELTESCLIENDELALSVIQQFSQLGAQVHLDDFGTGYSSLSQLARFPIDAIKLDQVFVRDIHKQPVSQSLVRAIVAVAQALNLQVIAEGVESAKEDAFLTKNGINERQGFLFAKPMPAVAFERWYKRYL

This is an account of results in PMC5635695, “More than Enzymes That Make or Break Cyclic Di-GMP—Local Signaling in the Interactome of GGDEF/EAL Domain Proteins of Escherichia coli” (mBio, 2017).

No constants are given. Whether binding was seen depends on the method and setting. A result given as binding can be weak or reduced; the word gives no strength.

For “DgcE (entire cytoplasmic region) (E. coli K-12) (domain or fragment)”, in the assay with PdeR (E. coli K-12), the binding entry is “binds”.

As for “DgcN (entire cytoplasmic region) (E. coli K-12) (domain or fragment)”, the binding entry with PdeR (E. coli K-12) is “binds”.

Regarding “oxygen-sensing globin sensor domain of DgcO (E. coli K-12) (domain or fragment)”, the binding entry in assay [1] and in assay [2] was “binds” each time.
